Assay results published in patent publication EP4477665A1 (AffyXell Therapeutics Co., Ltd., dated 2024).
Results are given in words; binding and its absence hold for the method and conditions named. Some results given as binding are weak or reduced against the parent protein; the word gives no strength.

T1: human CD40L (hCD40L antigen) (human, UniProt P29965 113-261, limits assumed)
T1 sequence (looked up): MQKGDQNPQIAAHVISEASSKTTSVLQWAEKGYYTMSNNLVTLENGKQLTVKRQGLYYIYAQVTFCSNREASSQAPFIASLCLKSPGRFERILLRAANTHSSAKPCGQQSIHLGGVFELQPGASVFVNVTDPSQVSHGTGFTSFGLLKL

B1: clone 227 (designed binder)
chain: MIPGGLSEAKPATPEIQEIVDKVKPQLEEKTGETYGKLEAVQYKTQVVHDVFYDQKAGTNYYIKVRAGDNKYMHLKVFKSLKWWYRIGNPEDLVLTGYQVDKNKDDELTGF
B2: clone 236 (designed binder)
chain: MIPGGLSEAKPATPEIQEIVDKVKPQLEEKTGETYGKLEAVQYKTQVVNSLGVSEWVGTNYYIKVRAGDNKYMHLKVFKSLPYWYRKNNLEDLVLTGYQVDKNKDDELTGF
B3: clone 328 (designed binder)
chain: MIPGGLSEAKPATPEIQEIVDKVKPQLEEKTGETYGKLEAVQYKTQVVVYKIITFWSGTNYYIKVRAGDNKYMHLKVFKSLEYPPVQQVLEDLVLTGYQVDKNKDDELTGF
B4: clone 329 (designed binder)
chain: MIPGGLSEAKPATPEIQEIVDKVKPQLEEKTGETYGKLEAVQYKTQVVGWIQRHNLIGTNYYIKVRAGDNKYMHLKVFKSLYSEPPPVQNEDLVLTGYQVDKNKDDELTGF
B5: clone 330 (designed binder)
chain: MIPGGLSEAKPATPEIQEIVDKVKPQLEEKTGETYGKLEAVQYKTQVVKTWEDTVVAGTNYYIKVRAGDNKYMHLKVFKSLEYLYRPLNPEDLVLTGYQVDKNKDDELTGF
B6: clone 331 (designed binder)
chain: MIPGGLSEAKPATPEIQEIVDKVKPQLEEKTGETYGKLEAVQYKTQVVLDQHHVYQVGTNYYIKVRAGDNKYMHLKVFKSLALLIHHDPWEDLVLTGYQVDKNKDDELTGF
B7: clone 332 (designed binder)
chain: MIPGGLSEAKPATPEIQEIVDKVKPQLEEKTGETYGKLEAVQYKTQVVLEDVWGVWAGTNYYIKVRAGDNKYMHLKVFKSLEFQHRTFNHEDLVLTGYQVDKNKDDELTGF
B8: clone 333 (designed binder)
chain: MIPGGLSEAKPATPEIQEIVDKVKPQLEEKTGETYGKLEAVQYKTQVVWLPWTVELIGTNYYIKVRAGDNKYMHLKVFKSLGEIWSAKHKEDLVLTGYQVDKNKDDELTGF
B9: clone 334 (designed binder)
chain: MIPGGLSEAKPATPEIQEIVDKVKPQLEEKTGETYGKLEAVKYKTQVVQHFTWDWFWGTNYYIKVRAGDNKYMHLKVFKSLPEYKPVDHTEDLVLTGYQVDKNKDDELTGF
B10: clone 335 (designed binder)
chain: MIPGGLSEAKPATPEIQEIVDKVKPQLEEKTGETYGKLEAVQYKTQVVLFEVLQGSSGTNYYIKVRAGDNKYMHLKVFKSLGEIVWYQVEEDLVLTGYQVDKNKDDELTGF
B11: clone 336 (designed binder)
chain: MIPGGLSEAKPATPEIQEIVDKVKPQLEEKTGETYGKLEAVQYKTQVVPYSWQHEVVGTNYYIKVRAGDNKYMHLKVFKSLIVFYLQEYYEEDLVLTGYQVDKNKDDELTGF
B12: clone 337 (designed binder)
chain: MIPGGLSEAKPATPEIQEIVDKVKPQLEEKTGETYGKLEAVQYKTQVVWWQENAEWIGTNYYIKVRAGDNKYMHLKVFKSLGYAVFHKYLEDLVLTGYQVDKNKDDELTGF
B13: clone 237 (designed binder)
chain: MIPGGLSEAKPATPEIQEIVDKVKPQLEEKTGETYGKLEAVQYKTQVVVYRIVSWWRGTNYYIKVRAGDNKYMHLKVFKSLASDIYLRIDEDLVLTGYQVDKNKDDELTGF
B14: clone 338 (designed binder)
chain: MIPGGLSEAKPATPEIQEIVDKVKPQLEEKTGETYGKLEAVQYKTQVVSYDPVYQDTGTNYYIKVRAGDNKYMHLKVFKSLFFHRTSVVYEDLVLTGYQVDKNKDDELTGF
B15: clone 339 (designed binder)
chain: MIPGGLSEAKPATPEIQEIVDKVKPQLEEKTGETYGKLEAVQYKTQVVRVFDTPLAAGTNYYIKVRAGDNKYMHLKVFKSLPWQYRNNPEEDLVLTGYQVDKNKDDELTGF
B16: clone 340 (designed binder)
chain: MIPGGLSEAKPATPEIQEIVDKVKPQLEEKTGETYGKLEAVQYKTQVVWWDIPWIWVGTNYYIKVRAGDNKYMHLKVFKSLQNDELYPYKEDLVLTGYQVDKNKDDELTGF
B17: clone 341 (designed binder)
chain: MIPGGLSEAKPATPEIQEIVDKVKPQLEEKTGETYGKLEAVQYKTQVVYQKVITWWQGTNYYIKVRAGDNKYMHLKVFKSLYWENHRGHVEDLVLTGYQVDKNKDDELTGF
B18: clone 342 (designed binder)
chain: MIPGGLSEAKPATPEIQEIVDKVKPQLEEKTGETYGKLEAVQYKTQVVQWIKWGNILGTNYYIKVRAGDNKYMHLKVFKSLYEAIERWHGEDLVLTGYQVDKNKDDELTGF
B19: clone 343 (designed binder)
chain: MIPGGLSEAKPATPEIQEIVDKVKPQLEEKTGETYGKLEAVQYKTQVVATPEKKYVVGTNYYIKVRAGDNKYMHLKVFKSLWNANILRYWEDLVLTGYQVDKNKDDELTGF
B20: clone 344 (designed binder)
chain: MIPGGLSEAKPATPEIQEIVDKVKPQLEEKTGETYGKLEAVQYKTQVVTSERLWILYGTNYYIKVRAGDNKYMHLKVFKSLTPRYVPLNPEDLVLTGYQVDKNKDDELTGF
B21: clone 345 (designed binder)
chain: MIPGGLSEAKPATPEIQEIVDKVKPQLEEKTGETYGKLEAVQYKTQVVEHHSQPLAHGTNYYIKVRAGDNKYMHLKVFKSLPYHAFDWYWEDLVLTGYQVDKNKDDELTGF
B22: clone 346 (designed binder)
chain: MIPGGLSEAKPATPEIQEIVDKVKPQLEEKTGETYGKLEAVQYKTQVVWTADWLWTVGTNYYIKVRAGDNKYMHLKVFKSLYDPSEWFPREDLVLTGYQVDKNKDDELTGF
B23: clone 347 (designed binder)
chain: MIPGGLSEAKPATPEIQEIVDKVKPQLEEKTGETYGKLEAVQYKTQVVSFQREHYSWGTNYYIKVRAGDNKYMHLKVFKSLFDIFYFNPIEDLVLTGYQVDKNKDDELTGF
B24: clone 238 (designed binder)
chain: MIPGGLSEAKPATPEIQEIVDKVKPQLEEKTGETYGKLEAVQYKTQVVYYRQLKFNTGTNYYIKVRAGDNKYMHLKVFKSLFLHRKPQDREDLVLTGYQVDKNKDDELTGF
B25: clone 348 (designed binder)
chain: MIPGGLSEAKPATPEIQEIVDKVKPQLEEKTGETYGKLEAVQYKTQVVGKTWHKHNRGTNYYIKVRAGDNKYMHLKVFKSLNLYFFFYQTEDLVLTGYQVDKNKDDELTGF

biological target: T1, human CD40L (hCD40L antigen); assay: ELISA, bacterial lysate on immobilized human CD40L, anti-Myc detection

binding, binds:
B1
B2
B3
B4
B5
B6
B7
B8
B9
B10
B11
B12
B13
B14
B15
B16
B17
B18
B19
B20
B21
B22
B23
B24
B25
